In the supplement of paper PMC3334620:
Whole data set: some 33,000 sequences, median “E-score (-0.5 to 0.5)” near -0.0059, cut for the highest 2% near 0.26. Some of the results follow.

Target: T1, Cin5 (UniProt P40917)
T1 sequence: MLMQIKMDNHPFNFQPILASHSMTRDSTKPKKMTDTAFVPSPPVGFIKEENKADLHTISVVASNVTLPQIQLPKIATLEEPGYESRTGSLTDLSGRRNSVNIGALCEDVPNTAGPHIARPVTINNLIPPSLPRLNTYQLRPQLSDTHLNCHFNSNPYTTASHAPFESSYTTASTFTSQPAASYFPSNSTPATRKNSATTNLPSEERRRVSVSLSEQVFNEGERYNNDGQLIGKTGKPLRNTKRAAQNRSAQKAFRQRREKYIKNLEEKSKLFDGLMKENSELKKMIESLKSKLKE
Assay: PBM E-score (8-mer binding enrichment) (E-score (-0.5 to 0.5)); higher = stronger / more preferred TF binding
Details: protein concentration: 100 nM; construct: GST-full length
How it was run: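 For each ungapped eight-base word taken together with its reverse complement, the Universal PBM Analysis Suite assigned an E-score. Binding data came from GST-tagged yeast transcription factors, applied at about 100-200 nM, on universal all-10-mer Agilent arrays made double-stranded by primer extension. Fluorescent anti-GST marked bound protein, and scans were normalised with masliner.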

Row | Sequence | PBM E-score
1 | GGAACATA | 0.0465
2 | AGTATTTA | 0.0905
3 | AGCTAGCT | 0.128
4 | GAGGAGGC | -0.199
5 | AACACGGT | 0.0055
6 | CTGAAACA | -0.0676
7 | ATGGTAGA | 0.0341
8 | CTTCAAAC | -0.00221
9 | AGCTAGTA | 0.147
10 | GCGATGAA | 0.0131
11 | CCTGTTTA | 0.0718
12 | CACGTGGC | -0.317
13 | CGAGTAAG | 0.24
14 | GGCCCACA | -0.149
15 | GGACCACC | -0.00836
16 | CTTAAACC | -0.192
17 | GACAATCA | 0.0666
18 | ATCCGTAC | 0.0842
19 | ACATGCAA | 0.0885
20 | ACAAGTGG | -0.044
21 | CGATGAAC | -0.0667
22 | CCTCGCGA | -0.00083
23 | AGGCGGTC | -0.211
24 | GTTACTCA | 0.0831
25 | CTTGCGCA | 0.103

From no. 14 to 19, as listed above:
Row | Sequence | PBM E-score
14 | GGCCCACA | -0.149
15 | GGACCACC | -0.00836
16 | CTTAAACC | -0.192
17 | GACAATCA | 0.0666
18 | ATCCGTAC | 0.0842
19 | ACATGCAA | 0.0885

Next results follow.

Row | Sequence | PBM E-score
26 | CCGACGGC | -0.201
27 | CGTGATGC | 0.0885
28 | CGGGATGC | -0.113
29 | GCGCATTA | 0.147
30 | AGATCTTA | 0.00186
31 | CTTTGCGC | 0.123
32 | CATTTCGC | 0.111
33 | ATCAAGCG | 2e-05
34 | AAAATGAA | 0.124
35 | CGACGGAC | 0.0756
36 | GATGTGTA | 0.0907
37 | CCATTGGA | -0.045
38 | ACATGCGT | -0.01
39 | ACAATGTG | 0.0255
40 | GTTTGAAA | 0.172
41 | CGCTTACC | 0.15
42 | GCCACATA | 0.064
43 | AAATGCGG | 0.0916
44 | CACCACCA | -0.0807
45 | CCTTAACG | -0.0146
46 | CGAGGAAG | -0.188
47 | GAAGGATC | -0.086
48 | ACCACGTA | -0.11
49 | AGTGCGTA | -0.0422
50 | ACTTCTCA | 0.0227

Row | Sequence | PBM E-score
51 | GACAGTGC | -0.0152
52 | CGTGAGCA | -0.18
53 | CAATACCG | -0.0361
54 | GTTTGGAA | -0.0016
55 | CGCTTCCA | -0.0495
56 | ATTTTACC | 0.237
57 | CGCGACAC | 0.0363
58 | GGACAGAC | -0.192
59 | ATAGGCGG | 0.156
60 | CCTTTCAG | -0.18
61 | CAAGTTAC | 0.104
62 | GGAGCGCA | -0.283
63 | CCTTATGA | 0.0855
64 | TCAGACCA | 0.0117
65 | GAACTAAA | 0.172
66 | AGCTTGAA | -0.00033
67 | ATCATCTG | 0.211
68 | AAGATTTC | 0.195
69 | ACCATTTG | 0.0298
70 | AACTATAT | 0.294
71 | AGTAGCTG | 0.00262
72 | CGTGCTAG | -0.194
73 | GAGGCGTA | 0.101
74 | CAGTCCCG | -0.242
75 | CGTGTCAA | -0.293

Row | Sequence | PBM E-score
76 | GCGATTAA | 0.209
77 | CAAAAAGA | 0.122
78 | CGTTAGGC | -0.249
79 | CTACGACA | 0.0366
80 | CCCGCCAG | -0.0957
81 | ACCCAGAG | 0.103
82 | CTCGGAGC | -0.0107
83 | AACCTACT | 0.172
84 | CATTTCCG | 0.242
85 | ACCCCACA | 0.144
86 | AAGGGTGC | -0.202
87 | TAGTCTCA | -0.112
88 | ATTACCGC | 0.115
89 | GTCACTAA | 0.174
90 | GCTTCCCC | -0.277
91 | ATCAACCC | 0.212
92 | AGGCGCGA | 0.0728
93 | TCAAGGGA | -0.199
94 | AGCTCCAA | 0.103
95 | CCTGGCAA | -0.153
96 | GGCCTCGA | -0.148
97 | CACCGACC | -0.0953
98 | CAAGCAAG | -0.103
99 | AATGTTAA | 0.0654
100 | AGACCGCA | -0.0965

Row | Sequence | PBM E-score
101 | ACTGCGAT | 0.0329
102 | GGAGATCC | -0.217
103 | AATGTCTA | 0.0318
104 | TTGCAAAA | 0.119
105 | CTAAGTTC | -0.176
106 | AACATATA | 0.183
107 | AGGGCTGG | -0.189
108 | CGGGGGGA | -0.452
109 | GACCCGTC | -0.273
110 | CATTTGGA | -0.0212
111 | AGAGTTCA | -0.0801
112 | ATTACTAA | 0.334
113 | GGGGGCCA | -0.361
114 | ACCCATTC | 0.118
115 | ATACTATG | 0.208
116 | ACATGCTG | 0.0475
117 | ATAATGGA | 0.184
118 | GGCAAGTA | 0.0585
119 | AATAAAAC | 0.18
120 | ACACAACC | 0.0551
121 | GTCAGAAA | 0.0145
122 | CATGATTC | -0.0303
123 | CGTGCAGC | -0.0253
124 | GTATTCCA | 0.0693
125 | CGAAGTGC | 0.0932

Row | Sequence | PBM E-score
126 | CCTAGGCG | -0.12
127 | TTACTAAA | 0.266
128 | GACGGGGC | -0.206
129 | CAACGTTA | 0.153
130 | AATTCACA | 0.258
131 | CTACACAC | 0.0775
132 | CCCGTAGC | -0.205
133 | AATAAGCG | 0.109
134 | ACTTATTC | 0.162
135 | ACCCGGTC | -0.145
136 | AAGCTTCG | -0.0536
137 | GAGGGTGC | -0.316
138 | AAGTTGAT | 0.0855
139 | CCGGCTTC | 0.0218
140 | ACTGATGC | 0.0568
141 | AGTGTCTG | 0.0894
142 | CCTCTCTC | -0.237
143 | CATAATCA | 0.385
144 | TCGTGCAA | -0.00799
145 | CGCATGAC | -0.0949
146 | AGGTGTCG | -0.0661
147 | CTGGCCCA | -0.327
148 | CATCAGGA | 0.0865
149 | AGCCGCTA | -0.116
150 | AGACACCC | -0.178

Row | Sequence | PBM E-score
151 | AATCAAGC | 0.0604
152 | CAACTTAC | 0.0414
153 | AATTAATA | 0.341
154 | ATAATATA | 0.345
155 | ATCACGTG | 0.124
156 | GAGTGCGC | -0.01
157 | CGCTCCAG | -0.299
158 | ATATGATA | 0.314
159 | GGGAGGTA | -0.121
160 | TCAGAGCA | -0.128
161 | AAATTCCA | 0.295
162 | GCACGGCA | -0.125
163 | ACTCAAAT | 0.0607
164 | ACAACAAC | 0.139
165 | GACTTAAC | -0.143
166 | ACGCTGTG | -0.0954
167 | GGCGCTAA | -0.0505
168 | CCTCTCAG | -0.291
169 | GACTCCGC | -0.055
170 | CTTTGCAA | 0.0565
171 | ACCCGTTG | -0.193
172 | ACCGGAAC | 0.206
